We go through 15 compounds from PubChem BioAssay AID248 (DTP/NCI, 2004).

This assay relates to L1210 leukemia ip in BDF1 mice, survival T/C. In words: NCI In Vivo Anticancer Drug Screen. Data for tumor model L1210 Leukemia (intraperitoneal) in B6D2F1 (BDF1) mice. The following applies: higher T/C = longer survival.
[1] abbreviates: T/C endpoint: mean survival time, dose: 200.0 mg/kg/injection, schedule: Q04DX003 (ip), vehicle: saline.
The mark [2] stands for this setting: T/C endpoint: median survival time, dose: 128.0 mg/kg/injection, schedule: Q01DX009 (oral), vehicle: saline.
[3] abbreviates: T/C endpoint: mean survival time, dose: 200.0 mg/kg/injection, schedule: Q01DX009 (ip), vehicle: Klucel (hydroxypropylcellulose) (HPC).
[4] abbreviates: T/C endpoint: mean survival time, dose: 200.0 mg/kg/injection, schedule: Q01DX009 (ip), vehicle: saline with Tween-80.

The list is a part of this screen's results and no random one: it gathers tests that were run many times, whatever their T/C, doses with no T/C, and many T/C values between a quarter and a half above the control. Further doses and runs are listed elsewhere. T/C gives the treated animals as a percentage of the vehicle group. Some entries give survivors of the animals treated and no T/C: the source holds a T/C of zero for them, seemingly a mark for toxic or unscored doses. Some doses without a T/C left all or most animals alive at the check, yet need not have been tolerated: survival well below the control is almost never listed, so the zero probably covers shortened survival too. Survivors were counted at the toxicity check, usually on the fifth day, unless a day is given; later deaths do not show. Schedule codes are those of the source, read here as Q, the interval in days (D) or hours (H), X, the number of doses. Some structures stand for samples that the source files as different forms (salt, stereo form or complex); doses refer to the form tested. Some doses were run more than once; the values are given in rising order. Where survival is the endpoint, this PubChem deposit counts one and a half times the control or more as active, and values a quarter to a half above the control carry no call in these data; other NCI protocols may use other cut-offs. Some T/C values carry the count of animals alive at the toxicity check (mostly the fifth day); where none is given, no animal had died by that day. Counts like (3×) stand for listed records that agree.

On to `C[C@@H](CN1CC(=O)NC(=O)C1)N1CC(=O)NC(=O)C1`, for which the T/C runs as follows: (T/C endpoint: mean survival time, dose: 100.0 mg/kg/injection, schedule: Q04DX003 (ip), vehicle: water) 133 % of control; under setting [1], 128 % of control; (T/C endpoint: mean survival time, dose: 200.0 mg/kg/injection, schedule: Q04DX003 (ip), vehicle: water) 142 % of control; (T/C endpoint: mean survival time, dose: 800.0 mg/kg/injection, schedule: Q04DX003 (ip), vehicle: water) 129 % of control; (T/C endpoint: mean survival time, dose: 1024.0 mg/kg/injection, schedule: Q04DX003 (oral), vehicle: saline) 134 % of control; (T/C endpoint: median survival time, dose: 8.0 mg/kg/injection, schedule: Q01DX009 (ip), vehicle: saline) 118, 119, 121 (2×), 129 % of control. In addition, the T/C (T/C endpoint: median survival time, dose: 8.0 mg/kg/injection, schedule: Q01DX009 (oral), vehicle: saline) is 113, 122, 123, 152 % of control; the T/C (T/C endpoint: median survival time, dose: 16.0 mg/kg/injection, schedule: Q01DX009 (ip), vehicle: saline) is 128, 130, 134, 135, 148 % of control; the T/C (T/C endpoint: median survival time, dose: 16.0 mg/kg/injection, schedule: Q01DX009 (oral), vehicle: saline) is 124, 127, 152, 153 % of control; the T/C (T/C endpoint: median survival time, dose: 32.0 mg/kg/injection, schedule: Q01DX009 (ip), vehicle: saline) is 140, 143, 146, 154, 156 % of control; the T/C (T/C endpoint: median survival time, dose: 32.0 mg/kg/injection, schedule: Q01DX009 (oral), vehicle: saline) is on record as 134, 161, 164, 172 % of control; the T/C (T/C endpoint: median survival time, dose: 32.0 mg/kg/injection, schedule: Q01DX009 (sc), vehicle: saline) was 149 % of control. For the same compound, the T/C reads like this: (T/C endpoint: median survival time, dose: 64.0 mg/kg/injection, schedule: Q01DX009 (ip), vehicle: saline) 153, 163 (2×), 169, 172 % of control; (T/C endpoint: median survival time, dose: 64.0 mg/kg/injection, schedule: Q01DX009 (oral), vehicle: saline) 91, 109, 131 [9 of 10 alive], 184 % of control; (T/C endpoint: median survival time, dose: 64.0 mg/kg/injection, schedule: Q03HX016 (ip), vehicle: saline) 137 % of control; under setting [2], 89, 106, 112 % of control; (T/C endpoint: median survival time, dose: 128.0 mg/kg/injection, schedule: Q01DX009 (sc), vehicle: saline) 146 % of control; (T/C endpoint: median survival time, dose: 128.0 mg/kg/injection, schedule: Q08DX002 (ip), vehicle: saline) 126 % of control. Also, the T/C reads like this: (T/C endpoint: median survival time, dose: 256.0 mg/kg/injection, schedule: Q04DX003 (oral), vehicle: saline) 136, 150, 167, 184 % of control; (T/C endpoint: median survival time, dose: 256.0 mg/kg/injection, schedule: Q04DX003 (sc), vehicle: saline) 132 % of control; (T/C endpoint: median survival time, dose: 512.0 mg/kg/injection, schedule: Q04DX003 (ip), vehicle: saline) 146 % of control; (T/C endpoint: median survival time, dose: 512.0 mg/kg/injection, schedule: Q04DX003 (oral), vehicle: saline) 157, 184, 188, 236 % of control; (T/C endpoint: median survival time, dose: 512.0 mg/kg/injection, schedule: Q08DX002 (ip), vehicle: saline) 137 % of control; (T/C endpoint: median survival time, dose: 1024.0 mg/kg/injection, schedule: Q01DX001 (ip), vehicle: saline) 130 % of control. The T/C runs as follows: (T/C endpoint: median survival time, dose: 1024.0 mg/kg/injection, schedule: Q04DX003 (oral), vehicle: saline) 186, 236, 241, 242 % of control; (T/C endpoint: median survival time, dose: 2048.0 mg/kg/injection, schedule: Q04DX003 (oral), vehicle: saline) 98, 146, 198, 247 % of control. For the same compound, the survivor count is 2 of 10 (T/C endpoint: mean survival time, dose: 2048.0 mg/kg/injection, schedule: Q04DX003 (oral), vehicle: saline) and 10 of 10 under setting [2].

Regarding `C(=P(c1ccccc1)(c1ccccc1)c1ccccc1)[P+](c1ccccc1)(c1ccccc1)c1ccccc1.[Br][Cu][Br]`, the survivor count is, setting by setting: (T/C endpoint: mean survival time, dose: 12.5 mg/kg/injection, schedule: Q01DX009 (ip), vehicle: Klucel (hydroxypropylcellulose) (HPC)) 2 of 6; (T/C endpoint: mean survival time, dose: 25.0 mg/kg/injection, schedule: Q01DX009 (ip), vehicle: Klucel (hydroxypropylcellulose) (HPC)) 0 of 6; (T/C endpoint: mean survival time, dose: 50.0 mg/kg/injection, schedule: Q01DX009 (ip), vehicle: Klucel (hydroxypropylcellulose) (HPC)) 0 of 6; (T/C endpoint: mean survival time, dose: 100.0 mg/kg/injection, schedule: Q01DX009 (ip), vehicle: Klucel (hydroxypropylcellulose) (HPC)) 1 of 6; under setting [3], 0 of 6; (T/C endpoint: mean survival time, dose: 400.0 mg/kg/injection, schedule: Q01DX009 (ip), vehicle: Klucel (hydroxypropylcellulose) (HPC)) 0 of 6.

Take `NC(=S)N/N=C/c1ccc(C(F)(F)F)cn1`: the survivor count is recorded as 6 of 10 (T/C endpoint: mean survival time, dose: 44.0 mg/kg/injection, schedule: Q01DX001 (ip), vehicle: saline with Tween-80); 5 of 10 (T/C endpoint: mean survival time, dose: 66.0 mg/kg/injection, schedule: Q01DX001 (ip), vehicle: saline with Tween-80); 0 of 10 (T/C endpoint: mean survival time, dose: 100.0 mg/kg/injection, schedule: Q01DX001 (ip), vehicle: saline with Tween-80); 0 of 10 (T/C endpoint: mean survival time, dose: 150.0 mg/kg/injection, schedule: Q01DX001 (ip), vehicle: saline with Tween-80); 0 of 10 (T/C endpoint: mean survival time, dose: 225.0 mg/kg/injection, schedule: Q01DX001 (ip), vehicle: saline with Tween-80).

In the case of `O=C(CC(O)(c1ccccc1)c1ccccc1)Nc1ccccn1`, under “T/C endpoint: mean survival time, dose: 400.0 mg/kg/injection, schedule: Q01DX001 (ip), vehicle: other”, the survivor count is given as 4 of 4.

Turning to `O=C(O)c1ccc(P(=O)(O)O)cc1[N+](=O)[O-]`, the survivor count under setting [1] is on record as 5 of 6.

On to `N#CC12OC1(C#N)C(=O)C1(Cl)C3C=CC(C3)C1(Cl)C2=O` (stereo not given), for which the survivor count by setting is: (T/C endpoint: mean survival time, dose: 100.0 mg/kg/injection, schedule: Q01DX009 (ip), vehicle: saline) 0 of 3; (T/C endpoint: mean survival time, dose: 200.0 mg/kg/injection, schedule: Q01DX009 (ip), vehicle: saline) 0 of 3.

Consider `NOCCCCON`, for which the T/C (T/C endpoint: mean survival time, dose: 100.0 mg/kg/injection, schedule: Q04DX002 (ip), vehicle: saline) was 93, 98, 100 % of control (2×). The survivor count reads like this: (T/C endpoint: mean survival time, dose: 200.0 mg/kg/injection, schedule: Q04DX002 (ip), vehicle: saline) 0 of 6; (T/C endpoint: mean survival time, dose: 400.0 mg/kg/injection, schedule: Q01DX009 (ip), vehicle: saline) 0 of 3 and 1 of 6; (T/C endpoint: mean survival time, dose: 400.0 mg/kg/injection, schedule: Q04DX002 (ip), vehicle: saline) 0 of 3 and 0 of 6; (T/C endpoint: mean survival time, dose: 400.0 mg/kg/injection, schedule: Q04DX003 (ip), vehicle: saline) 6 of 6.

Regarding `CCc1ccccc1NC(=O)SCCSC(=O)Nc1ccccc1CC`, the survivor count under setting [3] was 6 of 6.

For `C[CH2][Sn]([Cl])([CH2]C)[O][Sn]([Cl])([CH2]C)[CH2]C`, the survivor count is on record as 0 of 3 (T/C endpoint: mean survival time, dose: 50.0 mg/kg/injection, schedule: Q04DX003 (ip), vehicle: saline); 0 of 3 (T/C endpoint: mean survival time, dose: 100.0 mg/kg/injection, schedule: Q04DX003 (ip), vehicle: saline); 0 of 3 under setting [1].

Regarding `O=C(CNC(=O)C(CSCc1ccccc1)NC(=O)OCc1ccccc1)OCc1ccccc1` (stereo not given), for the setting “T/C endpoint: mean survival time, dose: 200.0 mg/kg/injection, schedule: Q04DX003 (ip), vehicle: Klucel (hydroxypropylcellulose) (HPC)”, the survivor count was 6 of 6.

Turning to `c1ccc(C2c3cc4ccccc4cc3Oc3ccc4ccccc4c32)cc1` (stereo not given), for the setting “T/C endpoint: mean survival time, dose: 150.0 mg/kg/injection, schedule: Q04DX003 (ip), vehicle: other”, the survivor count is 6 of 6.

In the case of `CCOC(=O)C1C2CCCCC21` (stereo not given), the survivor count (T/C endpoint: mean survival time, dose: 400.0 mg/kg/injection, schedule: Q01DX001 (ip), vehicle: saline) was 3 of 6.

`O=c1cc(/C=N/Nc2ccc([N+](=O)[O-])cc2[N+](=O)[O-])c2cccc3c2n1CCC3`: the survivor count under setting [4] is recorded as 6 of 6.

`NNCC(F)(F)C(F)(F)C(F)(F)C(F)(F)C(F)(F)C(F)(F)C(F)(F)C(F)F`: the survivor count (T/C endpoint: mean survival time, dose: 400.0 mg/kg/injection, schedule: Q01DX009 (ip), vehicle: DMSO) was 4 of 6.

As to `CC(N=C=S)c1ccccc1` (stereo not given), the survivor count (T/C endpoint: mean survival time, dose: 100.0 mg/kg/injection, schedule: Q01DX009 (ip), vehicle: saline with Tween-80) is given as 6 of 6; the survivor count under setting [4] is 1 of 6; the survivor count (T/C endpoint: mean survival time, dose: 400.0 mg/kg/injection, schedule: Q01DX009 (ip), vehicle: saline with Tween-80) is reported as 0 of 6.
